Screen size: about 360,000 compounds; about 7,500 (2.1%) were called active. Inconclusive results, whose numbers are uncertain, are shown with a selection of clear calls. Calls come from the whole dose curve; as a rule, active = well fitted inhibition curve with a large enough effect; inconclusive = small, poorly fitted or top-dose-only effect, or effect the other way; inactive = flat fitted curve, though single readings scatter. A potency beside an inconclusive call is a rough fit, not a confirmed value.
Experiment: Nrf2 qHTS screen for inhibitors; note: nearly all actives have a fitted effect of over 60% in size
Conditions: A549 ARE-Fluc reporter, luciferase luminescence, 18-24 h; activity change, negative = inhibition: at 46 µM (top of the series)
How it was run: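 Two sequential reads on A549 ARE_Fluc cells exposed to compound for 18-24 h: a CellTiter-Fluor fluorescence read for viability, then a luciferase luminescence read for Nrf2/ARE activity.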
With `COC(=O)C(N)Cc1ccc(O)c(O)c1` (centres undefined) the Potency was “inactive”. For `COc1ccc(C(CNC(=O)C2CC(=O)N(Cc3ccccc3)C2)N2CCOCC2)cc1` (centres undefined), the Potency was “inactive”. With `O=C(CCCc1ccccc1)Nc1cccc([N+](=O)[O-])c1` the Potency was inconclusive: 32.6 µM [falling, partial curve, poor fit]. For `CCOC(=O)C1CCN(c2nc(-c3ccc(Br)cc3)nc3ccccc23)CC1`, the Potency was inconclusive: 18.4 µM [falling, single point]. With `CC1CCCN(C(=O)COc2ccc3c(c2)OCO3)C1` (centres undefined) the Potency was inconclusive: 16.4 µM [activator, partial curve]. In the case of `CC(=O)c1cccc(NC(=O)C(Cc2ccccc2)NS(=O)(=O)c2ccc(Br)s2)c1` (centres undefined), the Potency is reported as “inactive”. With `Fc1ccc(-c2nnc3ccc(N4CCc5ccccc5C4)nn23)cc1` the Potency was inconclusive: 5.8 µM [falling, partial curve, poor fit]. With `Cc1ccc2c(c1)C(c1ccccc1)N(C(=O)c1ccc(OC(C)C)cc1)CC(=O)N2` (centres undefined) the activity change, negative = inhibition was inactive: 5.02% [at 9.27 µM]. For `Cc1ccc(S(=O)(=O)Oc2ccccc2N2C(=O)C3C4CCC(C4)C3C2=O)cc1` (centres undefined), the Potency was inconclusive: 29.1 µM [falling, single point]. With `Cc1cc(C)n(S(=O)(=O)c2cc(C)c(C)cc2C)n1` the Potency was inconclusive: 18.4 µM [falling, partial curve, poor fit]. With `COc1cc(SC)ccc1C(=O)Nc1ncc(Cl)cc1Cl` the Potency was inconclusive: 10.3 µM [activator, partial curve]. With `COc1ccc([C@H]2CC(=O)C=C(c3ccc(Cl)c(Cl)c3)C2)cc1` the Potency was inconclusive: 29.1 µM [falling, single point]. For `CCC1(c2ccc(OC)cc2)NC(=O)N(CC(=O)c2ccc3c(c2)OCCO3)C1=O` (centres undefined), the Potency was inconclusive: 25.9 µM [falling, single point]. For `Cc1ccc2nc(SCC(=O)c3ccc(O)cc3O)[nH]c2c1`, the Potency was inconclusive: 25.9 µM [activator, single point]. In the case of `C=CCNc1nc(-c2cc3ccccc3o2)cs1`, the Potency is reported as inconclusive: 2.06 µM [activator, full curve]. With `O=C(CCCN1C(=O)/C(=C/c2ccc(F)cc2)SC1=S)NCCCn1ccnc1` the Potency was “inactive”. For `O=C(Nc1cc(F)ccc1F)N1CCN(c2ccnc3cc(Cl)ccc23)CC1`, the Potency was active: 16.4 µM. In the case of `COc1ccc(C(=O)Cn2cnc3ccccc3c2=O)cc1OC`, the Potency is reported as inconclusive: 9.2 µM [activator, partial curve]. In the case of `CCCCOc1ccc(C(=O)NCC2(N3CCN(C)CC3)CCCCC2)cc1`, the Potency is reported as inconclusive: 25.9 µM [activator, partial curve, poor fit]. With `Cc1ccccc1C(=O)N1CCN(c2ccc(NC(=O)c3ccc4c(c3)OCO4)cc2)CC1` the Potency was active: 9.2 µM. With `O=C(Nc1nnc(S(=O)(=O)N2CCOCC2)s1)c1cccc(F)c1` the Potency was inconclusive: 8.2 µM [activator, partial curve]. With `S=C(NCCCc1ccccc1)Nc1ccc(Br)cc1` the Potency was inconclusive: 29.1 µM [falling, single point]. With `Cn1cnc2cc(NCc3ccc(Cl)cc3)ccc21` the Potency was inconclusive: 1.64 µM [activator, partial curve, poor fit]. In the case of `Cc1coc2cc3oc(=O)c(CC(=O)NCc4ccc(F)cc4)c(C)c3cc12`, the Potency is reported as “inactive”. In the case of `CSc1ncc(CN2CCC(C(=O)Nc3cccc(-c4cscn4)c3)CC2)cn1`, the Potency is reported as inconclusive: 32.6 µM [falling, partial curve, poor fit]. In the case of `CCc1ccc2[nH]c(=O)c(CN(Cc3nnnn3C3CCCC3)C3CCCCC3)cc2c1`, the Potency is reported as inconclusive: 32.6 µM [falling, single point]. In the case of `O=C(CSc1nnc(-c2ccco2)n1Cc1ccccc1)OC1CCCCC1`, the Potency is reported as inconclusive: 18.4 µM [activator, partial curve]. In the case of `Oc1ccccc1-c1nc(/C=C/c2ccccc2Cl)no1`, the Potency is reported as inconclusive: 16.4 µM [activator, single point]. In the case of `COc1ccc(Br)cc1CNC(=O)Nc1cccs1`, the Potency is reported as inconclusive: 29.1 µM [falling, single point]. For `COc1ccccc1OCCCn1c(C2CC(=O)N(c3ccccc3Cl)C2)nc2ccccc21` (centres undefined), the Potency was inconclusive: 29.1 µM [falling, single point]. In the case of `O=C(NC(=S)N1CCCc2ccccc21)c1ccccc1`, the Potency is reported as inconclusive: 20.6 µM [activator, single point]. In the case of `Cc1ccc(NS(=O)(=O)c2cc3c(cc2Cl)CCC(=O)N3)cc1Cl`, the Potency is reported as “inactive”. In the case of `COc1ccc2nc(N3CCCC3)[nH]c2c1`, the Potency is reported as inconclusive: 23.1 µM [activator, single point]. In the case of `Cc1cc(C)cc(NC(=S)N2CCN(S(=O)(=O)c3ccccc3)CC2)c1`, the Potency is reported as inconclusive: 29.1 µM [falling, single point]. In the case of `Cc1ccc(C)c(N2CCN(C(=O)CCCn3ncn4c(cc5occc54)c3=O)CC2)c1`, the Potency is reported as inconclusive: 14.6 µM [falling, partial curve, poor fit]. In the case of `CCOC(=O)C1=C(O)CSC1=Nc1ccc(C)cc1`, the Potency is reported as “inactive”. For `COc1ccc(C(=O)Nc2ccc(-c3cc4ccccc4oc3=O)c(C)c2)cc1Br`, the Potency was inconclusive: 3.66 µM [falling, full curve]. With `Cc1cc(C)c(N=C2C(=O)Nc3ccccc32)c(C)c1` the Potency was “inactive”. With `CCOc1ccc(CN(C)Cc2cc(=O)oc3c(C)c(C)ccc23)cc1OC` the Potency was active: 16.4 µM. In the case of `CCOC(=O)C(=Cc1ccc(OCc2ccc([N+](=O)[O-])cc2)c(OC)c1)C(=O)OCC`, the Potency is reported as inconclusive: 29.1 µM [falling, single point]. With `COc1ccccc1CNc1ccc([N+](=O)[O-])cc1C` the Potency was inconclusive: 29.1 µM [falling, single point]. In the case of `O=C(/C=C/c1ccc(S(=O)(=O)N2CCOCC2)cc1)N1CCN(c2ccccc2)CC1`, the Potency is reported as active: 5.8 µM. In the case of `NC(=O)CC(NC(=O)c1ccc(Br)cc1)c1ccc(NCc2ccc(F)c(F)c2)c([N+](=O)[O-])c1` (centres undefined), the Potency is reported as inconclusive: 23.1 µM [falling, single point]. With `Cc1ccc(C(=O)Nc2cccc(C(F)(F)F)c2)cc1NC(=O)c1c[nH]c2cc(C(F)(F)F)ccc2c1=O` the Potency was “inactive”.

— PubChem BioAssay AID504444 (National Center for Advancing Translational Sciences (NCATS), 2011)
% is set by controls: 0 for no effect and ±100 for the full control effect; potency is the fitted concentration of half-maximal effect.
